{
  "source": "the supplement of paper PMC11409438",
  "note": "The list shows a part of the results. Repeats are few or missing, and single values can be far off.",
  "data": [
    {"test_system": "Caenorhabditis elegans ST65 (ncIs13[ajm-1::GFP])", "assay": "vulvae per adult worm (MAPK/ERK-dependent vulval induction, MetaXpress) (vulvae/adult); higher = more vulval induction (less MAPK/ERK inhibition)", "details": "10 µM; exposure time: 4-5 days from L1 at 20°C", "values": [
      {"smiles": "CNC(=O)c1ccc2cc([C@@]3(O)CCn4cncc43)ccc2c1", "note": "[TAK-700 (Orteronel)]", "vulvae per adult worm": 0.935},
      {"smiles": "COc1cc2c(cc1OCCCN1CCCC1)N=C(N)C21CCC1", "vulvae per adult worm": 1.06},
      {"smiles": "CO[C@H]1C[C@@H]2CC[C@@H](C)[C@@](O)(O2)C(=O)C(=O)N2CCCC[C@H]2C(=O)O[C@H]([C@H](C)C[C@@H]2CC[C@@H](OP(C)(C)=O)[C@H](OC)C2)CC(=O)[C@H](C)/C=C(\\C)[C@@H](O)[C@@H](OC)C(=O)[C@H](C)C[C@H](C)/C=C/C=C/C=C/1C", "note": "[Ridaforolimus (Deforolimus, MK-8669)]", "vulvae per adult worm": 1.02},
      {"smiles": "Cc1ccc(NC(=O)c2ccc(CN3CC[C@H](N(C)C)C3)c(C(F)(F)F)c2)cc1Nc1nccc(-c2cncnc2)n1", "note": "[Bafetinib (INNO-406)]", "vulvae per adult worm": 0.875},
      {"smiles": "C=CCc1cccc(/C=N/NC(=O)CN2CCN(Cc3ccccc3)CC2)c1O", "vulvae per adult worm": 0.585},
      {"smiles": "C1=N/C2=N/c3ccc(OCCN4CCCC4)c(c3)COC/C=C/COCc3cccc(c3)C(=C1)N2", "note": "[Pacritinib (SB1518)]", "vulvae per adult worm": 0.588},
      {"smiles": "CN1CC[C@H](c2c(O)cc(O)c3c(=O)cc(-c4ccccc4Cl)oc23)[C@H](O)C1", "note": "[Flavopiridol (Alvocidib)]", "vulvae per adult worm": 0.6},
      {"smiles": "Cc1ccc(NC(=O)c2ccc(CN3CCN(C)CC3)cc2)cc1Nc1nc(-c2cccnc2)cs1", "note": "[Masitinib (AB1010)]", "vulvae per adult worm": 0.731},
      {"smiles": "Cc1nc(Nc2ncc(C(=O)Nc3c(C)cccc3Cl)s2)cc(N2CCN(CCO)CC2)n1", "note": "[Dasatinib]", "vulvae per adult worm": 0.917},
      {"smiles": "CC(C)Cn1cnc2c(N)nc3ccccc3c21", "note": "[Imiquimod]", "vulvae per adult worm": 1.07},
      {"smiles": "Nc1ccccc1NC(=O)c1ccc(CNc2nccc(-c3cccnc3)n2)cc1", "note": "[Mocetinostat (MGCD0103)]", "vulvae per adult worm": 1.06},
      {"smiles": "C[C@@H](Oc1cc(-n2cnc3ccc(CN4CCN(C)CC4)cc32)sc1C(N)=O)c1ccccc1C(F)(F)F", "vulvae per adult worm": 0.793}
    ]}
  ]
}
